# Measured values published in PubChem BioAssay AID2685 (National Center for Advancing Translational Sciences (NCATS), 2010).
# Some of the results follow. These are further read-outs of the screen, such as a control signal, another cell line or another target. No call is given for them. Compounds called inactive in the main read-out are mostly missing here. Potencies come from curve fits of mixed quality, noted in brackets.
# Test: qHTS Assay for Lipid Storage Modulators in Drosophila S3 Cells;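 for cell number change: cells counted by Cell Tracker Red CMTPX staining in the red channel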
# Conditions: BODIPY lipid droplet fluorescence, 18-24 h; for cell number change: measured here: cell count max response, cells fed with added oleic acid
# Summary of the method: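 Drosophila S3 cells got compounds at several concentrations plus oleic acid (400 uM solution). Laser-scanning cytometry with 488 nm excitation read lipid droplets at 500-530 nm and cells at 575-640 nm. Percent activity was relative to 20 uM Triacsin C.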
# [1] = measured here: lipid fluorescence (Fed channel) AC50, cells fed with added oleic acid
# [2] = measured here: cell number channel AC50, cells fed with added oleic acid
SMILES,cell number change,AC50 [1],AC50 [2]
O=C(CSc1ccc(-c2cccc([N+](=O)[O-])c2)nn1)NCc1ccccc1,-5.24%,,
Cc1ccc(S(=O)(=O)c2ccc(Oc3cccc(C)c3)cc2)cc1,9.37%,"0.291 µM [falling, full curve, poor fit]",
CC1(C)C2CC=C(/C=N/n3cnnc3)C1C2 (stereo not drawn),81.9%,,
O=C(CSc1nnc(CNc2ccc(F)cc2)n1Cc1ccccc1)NCc1ccccc1,-30.2%,"25.9 µM [falling, partial curve]","18.4 µM [falling, single point]"
Cn1cccc1Cc1nnc(SCC(=O)N2CCCCCC2)n1-c1ccc(F)cc1,-1.1%,,
CC(=O)N[C@@H](C)C(=O)N1CCC(n2nccc2NC(=O)CCCc2ccccc2)CC1,-39.3%,,"32.6 µM [falling, single point]"
Cc1ccc(S(=O)(=O)NNC(=O)CCCCC(=O)NNS(=O)(=O)c2ccc(C)cc2)cc1,-49.2%,,"29.1 µM [falling, single point]"
O=C(O)C1CC1(c1ccccc1)c1ccccc1 (stereo not drawn),41.2%,"29.1 µM [rising, single point]","29.1 µM [rising, single point]"
CC(=O)c1cccc(OCC(=O)N2CCCc3ccccc32)c1,-4.62%,,
CN1CCCN(S(=O)(=O)c2ccc(Cl)c(Cl)c2)CC1,-29.8%,"2.06 µM [falling, partial curve]","0.231 µM [falling, full curve]"
N#Cc1ccc(-c2ccc(OCC(=O)NCC(=O)Nc3ccc(F)c(F)c3F)cc2)cc1,15.1%,"16.4 µM [rising, partial curve]",
CC(C)(C)C(=O)Nc1cccc(C(=O)c2cccc(NC(=O)C(C)(C)C)c2)c1,4.05%,"0.58 µM [rising, single point]",
S=C(NCc1ccccc1)Nc1cccc2ccccc12,,"5.01 µM [rising, partial curve]",
Cc1ccc(C)c(N2CCN(S(=O)(=O)c3c(C)[nH]c(C)c3C(=O)N3CCCC3)CC2)c1,-33.6%,,"29.1 µM [falling, single point]"
Cc1ccc2oc(C(=O)NCc3ccc(S(N)(=O)=O)cc3)cc(=O)c2c1,129%,"29.1 µM [falling, partial curve, poor fit]","29.1 µM [rising, single point]"
CCOC(=O)N1CCN(c2c(NCCCN(CC)Cc3ccccc3)c(=O)c2=O)CC1,5.09%,"0.00651 µM [rising, full curve, poor fit]",
N#CCC(=O)Nc1ccc(C(=O)OCC(=O)c2ccc3c(c2)OCCO3)cc1,-30.9%,,"0.00461 µM [falling, full curve, poor fit]"
O=C(c1ccccc1)c1ncc(C(F)(F)F)cc1Cl,,"1.03 µM [rising, full curve]",
CN1CCN(C(=O)c2ccc(-c3ccccc3)cc2)CC1,-5.25%,,
CCOc1ccccc1-n1c(=S)sc2c(=O)n(-c3ccc(C)cc3)c(=S)[nH]c21,14.9%,"5.17 µM [falling, single point]","4.11 µM [falling, single point]"

SMILES,cell number change,AC50 [1],AC50 [2]
Nc1nc(COC(=O)CCC(=O)c2ccccc2)nc(Nc2ccccc2)n1,-13.1%,,
CCC(C)(C(=O)NC1CCCCC1)N(C(=O)CNC(C)=O)c1c(C)n(C)n(-c2ccccc2)c1=O (stereo not drawn),-35.5%,"0.206 µM [falling, full curve, poor fit]","0.206 µM [falling, full curve, poor fit]"
COc1ccc(N2C(=O)NC(NC(=O)c3cccnc3)(C(F)(F)F)C2=O)cc1 (stereo not drawn),-14.6%,"1.84 µM [falling, partial curve, poor fit]",
C/C(=N\Nc1ccc(S(=O)(=O)Nc2ccc(Cl)cc2)cc1[N+](=O)[O-])c1ccc(N2CCOCC2)cc1,-46.5%,"2.31 µM [falling, full curve]","0.231 µM [falling, full curve]"
CS(=O)(=O)N1CCN(c2ccc([N+](=O)[O-])c3cccnc23)CC1,,"6.51 µM [rising, single point]","6.51 µM [rising, single point]"
Cc1ccc(OCC(=O)NCCNC(=O)COc2ccc(C)cc2)cc1,19.7%,,"2.06 µM [rising, partial curve]"
CC1(C)C2CCC1(CS(=O)(=O)N1CCC(C(=O)O)CC1)C(=O)C2 (stereo not drawn),10.4%,"4.11 µM [falling, single point]","1.03 µM [falling, full curve, poor fit]"
CCOC(=O)c1ccccc1-n1c(C)cc(C2N=C(N)Nc3nc4ccccc4n32)c1C (stereo not drawn),-42.9%,,"20.6 µM [falling, single point]"
Cc1ccc(-c2cc(-c3ccccc3)no2)cc1,16.2%,"0.00461 µM [falling, full curve, poor fit]",
COc1ccc(-c2csc(N3CCN(S(=O)(=O)c4ccc5c(c4)NC(=O)CO5)CC3)n2)cc1,18.6%,"20.6 µM [rising, partial curve]",
CC(=O)c1ccc(S(=O)(=O)NCCC(=O)OCC(=O)NCCc2ccccc2)cc1,,"9.2 µM [rising, partial curve]",
CC1CC(c2ccccc2)=Nc2ccccc2N1 (stereo not drawn),,"3.66 µM [falling, partial curve, poor fit]",
CCN(Cc1cccs1)C(=O)CN1C(=O)NC(c2ccccc2)(c2ccccc2)C1=O,1.61%,,"0.411 µM [rising, partial curve, poor fit]"
CCOC(=O)Cc1csc(SCC(=O)NC2CCCC(C)C2C)n1 (stereo not drawn),1.59%,"18.4 µM [falling, single point]",
CCOc1ccc(S(=O)(=O)NCCC(=O)OCN2C(=O)c3ccccc3C2=O)cc1,2.56%,"5.17 µM [falling, partial curve]","0.82 µM [falling, full curve]"
CCOC(=O)c1cc2c(ccn2-c2ccc(F)cc2)n1CC(=O)N1CCN(C(=O)c2ccco2)CC1,-5.2%,,
Cc1cc(=O)[nH]c(SCC(=O)N(CCC#N)c2ccccc2)c1C#N,69.1%,,
CCCC(C(=O)NC1CCCC1)N(Cc1ccc(F)cc1)C(=O)c1snc(C(N)=O)c1N (stereo not drawn),-1.32%,,
CN(C)c1ccc(C(=O)c2ccc(N(C)C)c3ccccc23)cc1,-16.1%,"1.3 µM [falling, partial curve]",
O=C(c1cc(S(=O)(=O)N2CCOCC2)ccc1Cl)N1CCOCC1,1.93%,"29.1 µM [rising, single point]",

# Molecules above with a CF3 group (two):
SMILES,cell number change,AC50 [1],AC50 [2]
O=C(c1ccccc1)c1ncc(C(F)(F)F)cc1Cl,,"1.03 µM [rising, full curve]",
COc1ccc(N2C(=O)NC(NC(=O)c3cccnc3)(C(F)(F)F)C2=O)cc1 (stereo not drawn),-14.6%,"1.84 µM [falling, partial curve, poor fit]",

# (cont.)

SMILES,cell number change,AC50 [1],AC50 [2]
CC1=NNC(=O)/C1=C\c1cn(-c2ccccc2)nc1-c1ccc(F)cc1,-65.2%,"14.6 µM [falling, partial curve]","23.1 µM [falling, partial curve]"
COc1cccc(CC(=O)OC(C)C(=O)Nc2ccc(Cl)cn2)c1 (stereo not drawn),16%,,
CN1CCN(NC(=O)CN2C(=O)/C(=C/c3c(Cl)cccc3Cl)SC2=S)CC1,-0.862%,"6.51 µM [rising, single point]",
CCCC(=O)Nc1ccc(C(=O)NCC(=O)OCC)cc1,-5.2%,,
COc1ccc(CC(=O)Oc2ccc(C)cc2Br)cc1OC,0.821%,,"0.651 µM [rising, partial curve, poor fit]"
N#Cc1c(/N=C/c2ccco2)sc2c1CCC2,3.12%,"0.461 µM [rising, full curve]",
CC1Cc2cc(S(=O)(=O)NCCC(=O)N(C)Cc3ccccc3)ccc2N1C(=O)C1CC1 (stereo not drawn),-17%,"0.13 µM [falling, full curve, poor fit]",
Cc1cccc(-n2c(O)c(C=Nc3cc(O)ccc3C)c3ccccc3c2=O)n1,-43.2%,"9.2 µM [falling, partial curve]","0.259 µM [falling, partial curve]"
COc1ccc(CCNC(=O)CCC(=O)n2ncc3cc(C)ccc32)cc1OC,-22.8%,"29.1 µM [falling, partial curve]",
CCOc1ccc(-c2nnc(NC(=O)CCCOc3cccc(C)c3)o2)cc1,-53.2%,"4.11 µM [falling, full curve]","7.31 µM [falling, partial curve]"
CCOc1ccc(S(=O)(=O)N2CCN(Cc3ccc4c(c3)OCO4)CC2)cc1C,21.9%,,"0.0058 µM [rising, full curve, poor fit]"
CCNC(=O)CSc1nc2ccccc2c(=O)n1OC,0.893%,,
C=CCOc1c(Br)cc(CNn2c(C)n[nH]c2=S)cc1OCC,-17.9%,,
CCN(C(=O)c1cc2c(=O)n3cccc(C)c3nc2n1CCCOC)C1CCCCC1,,"18.4 µM [falling, partial curve]",
CC(C)OC(=O)CSc1nnc(CNc2nc(-c3ccccc3)cs2)n1C,1.56%,"0.651 µM [falling, single point]",
Cc1ccccc1Nc1nc(-c2sc(NC(=O)c3cccc(Cl)c3)nc2C)cs1,-42.7%,"0.517 µM [falling, partial curve]","29.1 µM [falling, single point]"
CCCCc1cc(=O)oc2c(CN(C)C)c(O)ccc12,-86.1%,"6.51 µM [falling, partial curve]","4.11 µM [falling, full curve]"
CCN(CC)S(=O)(=O)N1CCC(C(=O)NC2CCCc3ccccc32)CC1 (stereo not drawn),,"20.6 µM [falling, partial curve, poor fit]",
Cc1cc(Oc2ccccc2)nc2ccc(O)cc12,-15.4%,"29.1 µM [rising, single point]",

# Reformatted: 2 of the compounds above.
SMILES	cell number change	AC50 [1]	AC50 [2]
S=C(NCc1ccccc1)Nc1cccc2ccccc12		5.01 µM [rising, partial curve]	
Cc1ccc(C)c(N2CCN(S(=O)(=O)c3c(C)[nH]c(C)c3C(=O)N3CCCC3)CC2)c1	-33.6%		29.1 µM [falling, single point]
